Measured values: article PMC11131025
Results are given in words; binding and its absence hold for the method and conditions named. For some assays here: Binding seen in cells or lysates may run through a third protein. Some binding calls cover weakened binding; strength is not graded here. Sequences can lack the tags named with a protein. Values belong to the binder of their own block, whether it stands above or below them.

How the values were obtained:
[1] = biological target: T1, FLAG-tagged NOD1 expressed in SUM159 cells (human) (UniProt Q9Y239); experiment: co-IP; SUM159 cells, reciprocal; lysis in EBC buffer (50 mmol/L Tris, 120 mmol/L NaCl, 0.5% NP40, pH 7.5), FLAG beads or anti-HIS antibody-coupled protein A/G beads overnight at 4°C, washed with NETN buffer; also after treatment of the cells with ETBF or 10 nmol/L BFT-1, which increased the interaction
T1 sequence: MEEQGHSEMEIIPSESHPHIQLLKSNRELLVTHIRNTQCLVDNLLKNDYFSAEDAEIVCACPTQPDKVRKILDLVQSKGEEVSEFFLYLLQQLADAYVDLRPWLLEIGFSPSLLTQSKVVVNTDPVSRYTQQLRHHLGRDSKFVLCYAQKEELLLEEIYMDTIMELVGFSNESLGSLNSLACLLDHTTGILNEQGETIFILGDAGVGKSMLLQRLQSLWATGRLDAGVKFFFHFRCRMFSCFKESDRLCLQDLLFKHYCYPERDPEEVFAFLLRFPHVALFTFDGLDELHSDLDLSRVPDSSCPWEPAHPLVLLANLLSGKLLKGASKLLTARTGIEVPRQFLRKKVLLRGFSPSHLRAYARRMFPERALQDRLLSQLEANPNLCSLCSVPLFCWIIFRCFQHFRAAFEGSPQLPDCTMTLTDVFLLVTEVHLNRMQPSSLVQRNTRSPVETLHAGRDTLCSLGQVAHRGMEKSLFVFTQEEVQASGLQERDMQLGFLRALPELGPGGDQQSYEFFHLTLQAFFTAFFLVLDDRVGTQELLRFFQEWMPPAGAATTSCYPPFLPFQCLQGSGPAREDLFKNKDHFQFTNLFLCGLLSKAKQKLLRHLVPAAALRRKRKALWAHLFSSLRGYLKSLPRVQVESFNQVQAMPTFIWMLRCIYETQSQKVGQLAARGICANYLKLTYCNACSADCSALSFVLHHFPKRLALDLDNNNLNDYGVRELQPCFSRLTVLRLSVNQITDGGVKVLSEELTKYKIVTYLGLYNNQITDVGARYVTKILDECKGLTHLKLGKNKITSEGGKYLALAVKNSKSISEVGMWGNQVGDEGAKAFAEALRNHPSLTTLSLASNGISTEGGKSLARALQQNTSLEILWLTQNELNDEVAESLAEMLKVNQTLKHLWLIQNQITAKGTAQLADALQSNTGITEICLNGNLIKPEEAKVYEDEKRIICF

[2] = biological target: T2, FLAG-tagged NOD1, purified protein (human) (UniProt Q9Y239); experiment: pull-down; in vitro GST pull-down with purified recombinant proteins; which partner was held on the beads is not told; both purified
T2 sequence: T1 sequence

- binding [1]: binds
B1: GAK expressed in SUM159 cells (enzyme, UniProt O14976 1-1311)
chain: MSLLQSALDFLAGPGSLGGASGRDQSDFVGQTVELGELRLRVRRVLAEGGFAFVYEAQDVGSGREYALKRLLSNEEEKNRAIIQEVCFMKKLSGHPNIVQFCSAASIGKEESDTGQAEFLLLTELCKGQLVEFLKKMESRGPLSCDTVLKIFYQTCRAVQHMHRQKPPIIHRDLKVENLLLSNQGTIKLCDFGSATTISHYPDYSWSAQRRALVEEEITRNTTPMYRTPEIIDLYSNFPIGEKQDIWALGCILYLLCFRQHPFEDGAKLRIVNGKYSIPPHDTQYTVFHSLIRAMLQVNPEERLSIAEVVHQLQEIAAARNVNPKSPITELLEQNGGYGSATLSRGPPPPVGPAGSGYSGGLALAEYDQPYGGFLDILRGGTERLFTNLKDTSSKVIQSVANYAKGDLDISYITSRIAVMSFPAEGVESALKNNIEDVRLFLDSKHPGHYAVYNLSPRTYRPSRFHNRVSECGWAARRAPHLHTLYNICRNMHAWLRQDHKNVCVVHCMDGRAASAVAVCSFLCFCRLFSTAEAAVYMFSMKRCPPGIWPSHKRYIEYMCDMVAEEPITPHSKPILVRAVVMTPVPLFSKQRSGCRPFCEVYVGDERVASTSQEYDKMRDFKIEDGKAVIPLGVTVQGDVLIVIYHARSTLGGRLQAKMASMKMFQIQFHTGFVPRNATTVKFAKYDLDACDIQEKYPDLFQVNLEVEVEPRDRPSREAPPWENSSMRGLNPKILFSSREEQQDILSKFGKPELPRQPGSTAQYDAGAGSPEAEPTDSDSPPSSSADASRFLHTLDWQEEKEAETGAENASSKESESALMEDRDESEVSDEGGSPISSEGQEPRADPEPPGLAAGLVQQDLVFEVETPAVLPEPVPQEDGVDLLGLHSEVGAGPAVPPQACKAPSSNTDLLSCLLGPPEAASQGPPEDLLSEDPLLLASPAPPLSVQSTPRGGPPAAADPFGPLLPSSGNNSQPCSNPDLFGEFLNSDSVTVPPSFPSAHSAPPPSCSADFLHLGDLPGEPSKMTASSSNPDLLGGWAAWTETAASAVAPTPATEGPLFSPGGQPAPCGSQASWTKSQNPDPFADLGDLSSGLQGSPAGFPPGGFIPKTATTPKGSSSWQTSRPPAQGASWPPQAKPPPKACTQPRPNYASNFSVIGAREERGVRAPSFAQKPKVSENDFEDLLSNQGFSSRSDKKGPKTIAEMRKQDLAKDTDPLKLKLLDWIEGKERNIRALLSTLHTVLWDGESRWTPVGMADLVAPEQVKKHYRRAVLAVHPDKAAGQPYEQHAKMIFMELNDAWSEFENQGSRPLF

- binding [2]: binds
B2: GAK, purified recombinant protein for the GST pull-down (enzyme, UniProt O14976-1 1-1311)
chain: B1 chain
